These are yes or no findings as the source states them, for the method shown. Some entries that bind do so weakly or less than the wild type.
T1: human acid sphingomyelinase (ASM) protein (human) (UniProt P17405)
T1 sequence: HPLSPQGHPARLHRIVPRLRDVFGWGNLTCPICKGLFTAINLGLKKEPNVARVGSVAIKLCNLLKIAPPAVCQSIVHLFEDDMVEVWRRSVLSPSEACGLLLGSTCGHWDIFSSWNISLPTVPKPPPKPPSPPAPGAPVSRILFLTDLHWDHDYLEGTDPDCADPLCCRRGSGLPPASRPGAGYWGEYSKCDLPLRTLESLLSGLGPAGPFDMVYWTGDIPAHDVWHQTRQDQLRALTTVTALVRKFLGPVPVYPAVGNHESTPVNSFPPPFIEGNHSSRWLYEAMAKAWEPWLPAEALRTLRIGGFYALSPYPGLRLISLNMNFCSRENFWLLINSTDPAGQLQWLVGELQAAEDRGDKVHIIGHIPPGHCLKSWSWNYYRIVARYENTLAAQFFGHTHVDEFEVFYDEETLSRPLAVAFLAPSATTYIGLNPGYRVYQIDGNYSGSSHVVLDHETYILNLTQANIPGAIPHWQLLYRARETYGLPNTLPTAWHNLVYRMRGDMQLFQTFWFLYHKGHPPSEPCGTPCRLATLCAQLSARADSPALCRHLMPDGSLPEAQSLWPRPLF

T2: mouse acid sphingomyelinase (ASM) protein (mouse) (UniProt Q04519)
T2 sequence: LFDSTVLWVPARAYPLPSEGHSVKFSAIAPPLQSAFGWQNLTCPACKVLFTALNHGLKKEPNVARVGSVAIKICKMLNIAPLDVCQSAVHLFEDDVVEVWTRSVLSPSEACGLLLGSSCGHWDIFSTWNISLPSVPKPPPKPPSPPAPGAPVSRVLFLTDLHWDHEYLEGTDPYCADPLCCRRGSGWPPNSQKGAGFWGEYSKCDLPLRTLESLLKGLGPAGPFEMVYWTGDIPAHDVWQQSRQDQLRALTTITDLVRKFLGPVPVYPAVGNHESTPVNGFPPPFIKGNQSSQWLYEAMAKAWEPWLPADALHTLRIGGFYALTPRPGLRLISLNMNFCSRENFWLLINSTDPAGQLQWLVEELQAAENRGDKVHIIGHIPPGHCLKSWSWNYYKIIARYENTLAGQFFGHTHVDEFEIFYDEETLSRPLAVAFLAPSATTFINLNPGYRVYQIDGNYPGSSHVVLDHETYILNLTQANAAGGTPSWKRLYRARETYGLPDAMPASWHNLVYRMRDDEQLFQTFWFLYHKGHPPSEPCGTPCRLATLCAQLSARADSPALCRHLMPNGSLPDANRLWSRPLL


Columns and labels:
[1] = molecular target: T1, human acid sphingomyelinase (ASM) protein (human); test: ELISA, plate coated with recombinant human ASM
[2] = molecular target: T1, human acid sphingomyelinase (ASM) protein (human); test: BLI (Octet QK384), human ASM immobilised on AR2G sensor
[3] = molecular target: T1, human acid sphingomyelinase (ASM) protein (human); test: ELISA on plate-coated recombinant human ASM, goat anti-mouse IgG-HRP, O.D 450 nm
[4] = molecular target: T2, mouse acid sphingomyelinase (ASM) protein (mouse); test: BLI (Octet QK384), mouse ASM immobilised on AR2G sensor

Row | Binder | binding [1] | binding [2] | binding [3] | binding [4]
1 | antibody #9101 (antibody, mouse IgG1, V domains shown) VH: EVQLLESGGGLVQPGGSLRLSCAASGFTFSNYAMSWVRQAPGKGLEWVSGIYPNGGNKYYADSVKGRFTISRDNSKNTLYLQMNSLRAEDTAVYYCAKNAYRFDYWGQGTLVTVSS VL: QSVLTQPPSASGTPGQRVTISCSGSSSNIGNNYVSWYQQLPGTAPKLLIYADSKRPSGVPDRFSGSKSGTSASLAIGGLRSEDEADYYCGSWDYSLNAYVFGGGTKLTVLG | binds | binds | binds | 
2 | antibody #9104 (antibody, mouse IgG1, V domains shown) VH: EVQLLESGGGLVQPGGSLRLSCAASGFTFSNYYMSWVRQAPGKGLEWVSGIYYGSGNIYYADSVKGRFTISRDNSKNTLYLQMNSLRAEDTAVYYCARDTPGFDYWGQGTLVTVSS VL: QSVLTQPPSASGTPGQRVTISCTGSSSNIGNNAVNWYQQLPGTAPKLLIYYDSHRPSGVPDRFSGSKSGTSASLAISGLRSEDEADYYCGAWDYSLSAYVFGGGTKLTVLG | binds | binds | binds | binds

Results, then the binder that gave them:

Row | binding [1] | binding [2] | binding [3] | binding [4] | Binder
3 |  | binds |  |  | antibody #9113 (antibody, mouse IgG1, V domains shown) VH: EVQLLESGGGLVQPGGSLRLSCAASGFTFSSYYMSWVRQAPGKGLEWVSSISPGGSSIYYADSVKGRFTISRDNSKNTLYLQMNSLRAEDTAVYYCAKGASLFDYWGQGTLVTVSS VL: QSVLTQPPSASGTPGQRVTISCSGSSSNIGNNAVSWYQQLPGTAPKLLIYSDNKRPSGVPDRFSGSKSGTSASLAISGLRSEDEADYYCGTWDASLNAYVFGGGTKLTVLG
4 | binds | binds | binds |  | antibody #9108 (antibody, mouse IgG1, V domains shown) VH: EVQLLESGGGLVQPGGSLRLSCAASGFTFSNYAMSWVRQAPGKGLEWVSAIYPGGGSIYYADSVKGRFTISRDNSKNTLYLQMNSLRAEDTAVYYCARDVLGLTPKPFDYWGQGTLVTVSS VL: QSVLTQPPSASGTPGQRVTLSCTGSSSNIGSNTVYWYQQLPGTAPKLLIYANSQRPSGVPDRFSGSKSGTSASLAISGLRSEDEADYYCGSWDYSLSGYVFGGGTKLTVLG
